Source: US20080176963A1, “TREATMENT OF BRAIN DISORDERS OF THE STRIATUM” (priority 2007, published 2008)

How the values were obtained:
[1] = tested on: indirect-pathway MSN synapses; experiment: LTD induced by high-frequency afferent stimulation, whole-cell recording in striatal slices of control mice; assay type: cell-based, mouse; conditions: indirect-pathway MSNs; AM251 1 μM; sulpiride 10 μM; methysergide 4 μM, GR125487 1 μM, LY278584 1 μM, prazosin 2 μM, propranolol 1 μM; without drug 51±5%
[2] = tested on: indirect-pathway MSN synapses; experiment: LTD induced by tetanic stimulation in striatal slices from reserpine-treated mice; assay type: cell-based, mouse

Cc1c(C(=O)NN2CCCCC2)nn(-c2ccc(Cl)cc2Cl)c1-c1ccc(I)cc1 [AM251]
EPSC after LTD induction, % of baseline at 30-40 min [1]: 107±10 % of baseline
EPSC after LTD induction, % of baseline at 30-40 min [2]: 129±7 % of baseline
